PubChem BioAssay AID1224826 | NIAID, 2016
In all, the deposit lists about 17,000 reagents; shown is a random part of them. Over the whole deposit, about 1,110 (6.6%) were called active. 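Active means lowered or raised reporter signal; replicate intensities are raw and not normalised per plate.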

- Test: 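Genes that change LPS-induced Tnf promoter activity in mouse macrophages when knocked down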 (primary screen)
- Cell system: RAW264.7 G9 macrophages from mouse bearing reporters for p65 (GFP) and the Tnf promoter (mCherry)
- Reagent: siRNA pool against mouse genes, 100 nM
- Time to read-out: 16 h of LPS stimulation, after 2 days of siRNA transfection
- Conditions: bacterial lipopolysaccharide (Salmonella minnesota R595), 10 ng/ml
- Read-out: 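Imaged Tnf reporter mCherry in nuclei, minus background, normalised per plate to the median and expressed as robust z-scores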
- Direction: Tnf reporter robust z-score: higher = stronger Tnf promoter reporter signal after LPS; Tnf reporter intensity: higher = stronger Tnf promoter reporter signal
- Call rule: 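Called active when robust z-score is at most -1.3, matching the median of the Tlr4 knock-down control, or over 3; control wells and wells with under 50 cells never active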
- Meaning of the calls: active = Tnf reporter clearly lowered or raised; inactive = no clear change in Tnf reporter

gene knocked down | Tnf reporter robust z-score | fewer than 50 cells in well | Tnf reporter intensity, replicate 1 | Tnf reporter intensity, replicate 2 | call
Kcnj10 | 0.82 | enough cells in well | 276 | 147 | inactive
Sod3 | 0.19 | enough cells in well | 301 | 225 | inactive
Dnaja2 | – | fewer than 50 cells per well; well left out of calls | 85.8 | 150 | inactive
Gpkow | 1.01 | enough cells in well | 317 | 228 | inactive
Lpar2 | 0.45 | enough cells in well | 246 | 343 | inactive
Rnps1 | -1.31 | enough cells in well | 75.9 | 67.2 | active
Atoh1 | 0.42 | enough cells in well | 224 | 160 | inactive
Uck2 | 1.07 | enough cells in well | 275 | 208 | inactive
Ehmt1 | 0.11 | enough cells in well | 194 | 119 | inactive
Ctdspl | 0.05 | enough cells in well | 204 | 163 | inactive
Efemp1 | -0.26 | enough cells in well | 172 | 251 | inactive
Sac3d1 | – | fewer than 50 cells per well; well left out of calls | 166 | 31.2 | inactive
Ptma | -0.17 | enough cells in well | 229 | 184 | inactive
Gm4922 | -0.26 | enough cells in well | 167 | 129 | inactive
Zxdc | -0.4 | enough cells in well | 180 | 178 | inactive
Gps1 | -0.08 | enough cells in well | 278 | 203 | inactive
Arl1 | 0.9 | enough cells in well | 263 | 175 | inactive
Apoh | 0.33 | enough cells in well | 179 | 198 | inactive
Rag1 | -1.26 | enough cells in well | 198 | 104 | inactive
Tigar | -1.58 | enough cells in well | 107 | 65 | active
Zfp574 | -0.3 | enough cells in well | 167 | 123 | inactive
Stbd1 | 3.62 | enough cells in well | 393 | 379 | active
Pnpt1 | -0.34 | enough cells in well | 124 | 105 | inactive
Zdhhc14 | -1.01 | enough cells in well | 80.9 | 83.5 | inactive
Jkampl | – | fewer than 50 cells per well; well left out of calls | 223 | 25.1 | inactive
Vmn1r215 | -0.24 | enough cells in well | 109 | 51.5 | inactive
Fam204a | 2.17 | enough cells in well | 367 | 246 | inactive
Trmt5 | -1.29 | enough cells in well | 143 | 39.2 | inactive
Stambpl1 | -0.51 | enough cells in well | 138 | 122 | inactive
Crip2 | 1.03 | enough cells in well | 300 | 184 | inactive
Adcy6 | -0.36 | enough cells in well | 214 | 133 | inactive
Rasal1 | 0.4 | enough cells in well | 336 | 241 | inactive
Dkk2 | 0.28 | enough cells in well | 195 | 132 | inactive
Yars2 | – | fewer than 50 cells per well; well left out of calls | 96.9 | 65.5 | inactive
Myo1g | -0.68 | enough cells in well | 129 | 107 | inactive
Rhod | 0.45 | enough cells in well | 322 | 258 | inactive
Fnta | 0.19 | enough cells in well | 360 | 172 | inactive
A730018C14Rik | 0.3 | enough cells in well | 180 | 177 | inactive
Stx4a | 0.08 | enough cells in well | 111 | 58.9 | inactive
Cxcl12 | -0.45 | enough cells in well | 147 | 312 | inactive
Rab29 | 0.1 | enough cells in well | 378 | 173 | inactive
Tsks | 1.13 | enough cells in well | 239 | 185 | inactive
Xlr4b | -0.04 | enough cells in well | 77.1 | 126 | inactive
Plpp1 | -1.28 | enough cells in well | 140 | 108 | inactive
Or51f1d | – | fewer than 50 cells per well; well left out of calls | 74.1 | 76.3 | inactive
Hebp1 | -0.61 | enough cells in well | 206 | 122 | inactive
Klhl6 | -0.51 | enough cells in well | 167 | 88.6 | inactive
Bcl6 | 0.16 | enough cells in well | 150 | 175 | inactive
Plxdc1 | – | fewer than 50 cells per well; well left out of calls | 87.9 | 53.1 | inactive
Abca4 | -0.16 | enough cells in well | 160 | 138 | inactive
Manea | -0.7 | enough cells in well | 153 | 50.4 | inactive
Zfp758 | 0.96 | enough cells in well | 267 | 180 | inactive
Plin2 | -0.31 | enough cells in well | 226 | 129 | inactive
Sla | 0.29 | enough cells in well | 310 | 232 | inactive
Tlm | 2.47 | enough cells in well | 212 | 110 | inactive
Gpr83 | -1.07 | enough cells in well | 122 | 216 | inactive
Rps25 | -0.46 | enough cells in well | 97.1 | 119 | inactive
Glis1 | 0.33 | enough cells in well | 272 | 154 | inactive

Hits (from the list above):
gene knocked down | Tnf reporter robust z-score | fewer than 50 cells in well | Tnf reporter intensity, replicate 1 | Tnf reporter intensity, replicate 2 | call
Rnps1 | -1.31 | enough cells in well | 75.9 | 67.2 | active
Tigar | -1.58 | enough cells in well | 107 | 65 | active
Stbd1 | 3.62 | enough cells in well | 393 | 379 | active
